Data as given in the supplement of paper PMC10849652.
The other results are listed elsewhere or left out.

The chains behind the UniProt entries cited, without tags or fusion partners. Where a name states a change or a piece, a line headed by the entry shows the natural chain unless it says otherwise.
UniProt P50991: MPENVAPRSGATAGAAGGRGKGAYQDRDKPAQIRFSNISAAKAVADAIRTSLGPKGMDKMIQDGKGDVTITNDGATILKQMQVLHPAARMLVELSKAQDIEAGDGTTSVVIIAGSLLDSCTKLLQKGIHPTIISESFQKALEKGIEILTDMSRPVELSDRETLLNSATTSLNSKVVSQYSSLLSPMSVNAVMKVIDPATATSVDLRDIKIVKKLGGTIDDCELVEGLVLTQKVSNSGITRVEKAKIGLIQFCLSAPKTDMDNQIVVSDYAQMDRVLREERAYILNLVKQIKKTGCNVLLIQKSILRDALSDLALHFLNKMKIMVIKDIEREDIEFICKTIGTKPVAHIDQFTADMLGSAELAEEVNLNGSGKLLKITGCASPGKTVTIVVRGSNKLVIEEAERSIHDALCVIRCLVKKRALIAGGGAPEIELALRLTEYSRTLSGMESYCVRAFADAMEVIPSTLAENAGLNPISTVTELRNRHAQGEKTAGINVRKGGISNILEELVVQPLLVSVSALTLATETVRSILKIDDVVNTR
UniProt Q96MW1: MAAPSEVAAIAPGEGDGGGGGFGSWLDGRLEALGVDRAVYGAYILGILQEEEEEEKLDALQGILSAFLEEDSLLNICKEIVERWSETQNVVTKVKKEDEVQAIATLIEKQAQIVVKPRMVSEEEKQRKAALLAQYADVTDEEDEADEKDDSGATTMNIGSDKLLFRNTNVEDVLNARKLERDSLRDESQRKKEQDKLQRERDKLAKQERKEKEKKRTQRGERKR
UniProt Q8IWD4: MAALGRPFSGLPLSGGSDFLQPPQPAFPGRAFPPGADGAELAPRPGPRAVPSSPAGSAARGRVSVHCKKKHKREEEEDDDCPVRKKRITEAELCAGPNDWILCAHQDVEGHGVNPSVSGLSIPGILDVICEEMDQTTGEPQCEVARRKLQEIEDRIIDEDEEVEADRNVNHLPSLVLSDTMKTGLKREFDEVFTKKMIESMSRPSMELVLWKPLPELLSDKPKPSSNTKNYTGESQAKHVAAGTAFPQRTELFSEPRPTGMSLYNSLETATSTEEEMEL
UniProt P55212: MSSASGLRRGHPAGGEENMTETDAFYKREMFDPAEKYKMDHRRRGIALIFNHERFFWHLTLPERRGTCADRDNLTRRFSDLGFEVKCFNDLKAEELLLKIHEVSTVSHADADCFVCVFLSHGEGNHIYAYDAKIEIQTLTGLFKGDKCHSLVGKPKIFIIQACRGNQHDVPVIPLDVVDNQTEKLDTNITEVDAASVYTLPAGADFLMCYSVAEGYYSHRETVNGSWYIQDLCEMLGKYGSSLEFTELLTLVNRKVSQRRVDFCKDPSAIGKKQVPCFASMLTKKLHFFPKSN
UniProt P20810: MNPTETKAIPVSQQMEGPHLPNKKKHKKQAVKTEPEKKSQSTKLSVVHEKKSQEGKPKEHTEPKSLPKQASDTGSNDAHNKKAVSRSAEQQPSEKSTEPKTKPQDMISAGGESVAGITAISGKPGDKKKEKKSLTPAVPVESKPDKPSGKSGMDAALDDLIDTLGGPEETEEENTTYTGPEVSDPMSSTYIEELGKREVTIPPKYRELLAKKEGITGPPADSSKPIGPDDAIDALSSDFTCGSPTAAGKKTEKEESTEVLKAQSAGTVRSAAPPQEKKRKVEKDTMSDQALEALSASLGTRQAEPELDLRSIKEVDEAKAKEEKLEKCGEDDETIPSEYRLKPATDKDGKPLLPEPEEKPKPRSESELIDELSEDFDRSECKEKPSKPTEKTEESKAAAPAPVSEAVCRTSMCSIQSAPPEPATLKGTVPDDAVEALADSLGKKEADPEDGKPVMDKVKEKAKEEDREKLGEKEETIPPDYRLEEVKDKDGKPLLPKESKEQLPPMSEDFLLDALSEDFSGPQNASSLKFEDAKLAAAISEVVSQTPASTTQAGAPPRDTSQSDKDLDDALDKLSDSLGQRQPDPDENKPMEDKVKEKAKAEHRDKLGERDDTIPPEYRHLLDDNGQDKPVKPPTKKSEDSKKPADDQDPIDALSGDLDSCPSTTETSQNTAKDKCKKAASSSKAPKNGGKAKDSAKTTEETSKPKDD
UniProt Q8N4J0: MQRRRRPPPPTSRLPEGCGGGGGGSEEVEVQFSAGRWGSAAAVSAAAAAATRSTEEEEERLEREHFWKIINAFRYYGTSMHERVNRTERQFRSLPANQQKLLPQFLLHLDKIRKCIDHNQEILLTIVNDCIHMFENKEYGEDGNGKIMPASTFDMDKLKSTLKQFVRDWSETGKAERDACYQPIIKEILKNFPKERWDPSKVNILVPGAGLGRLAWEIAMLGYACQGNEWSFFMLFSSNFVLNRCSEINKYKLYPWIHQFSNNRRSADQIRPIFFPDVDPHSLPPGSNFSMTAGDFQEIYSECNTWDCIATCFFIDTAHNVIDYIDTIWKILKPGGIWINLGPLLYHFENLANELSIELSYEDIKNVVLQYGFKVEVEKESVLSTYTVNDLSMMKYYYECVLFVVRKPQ
UniProt Q3V6T2: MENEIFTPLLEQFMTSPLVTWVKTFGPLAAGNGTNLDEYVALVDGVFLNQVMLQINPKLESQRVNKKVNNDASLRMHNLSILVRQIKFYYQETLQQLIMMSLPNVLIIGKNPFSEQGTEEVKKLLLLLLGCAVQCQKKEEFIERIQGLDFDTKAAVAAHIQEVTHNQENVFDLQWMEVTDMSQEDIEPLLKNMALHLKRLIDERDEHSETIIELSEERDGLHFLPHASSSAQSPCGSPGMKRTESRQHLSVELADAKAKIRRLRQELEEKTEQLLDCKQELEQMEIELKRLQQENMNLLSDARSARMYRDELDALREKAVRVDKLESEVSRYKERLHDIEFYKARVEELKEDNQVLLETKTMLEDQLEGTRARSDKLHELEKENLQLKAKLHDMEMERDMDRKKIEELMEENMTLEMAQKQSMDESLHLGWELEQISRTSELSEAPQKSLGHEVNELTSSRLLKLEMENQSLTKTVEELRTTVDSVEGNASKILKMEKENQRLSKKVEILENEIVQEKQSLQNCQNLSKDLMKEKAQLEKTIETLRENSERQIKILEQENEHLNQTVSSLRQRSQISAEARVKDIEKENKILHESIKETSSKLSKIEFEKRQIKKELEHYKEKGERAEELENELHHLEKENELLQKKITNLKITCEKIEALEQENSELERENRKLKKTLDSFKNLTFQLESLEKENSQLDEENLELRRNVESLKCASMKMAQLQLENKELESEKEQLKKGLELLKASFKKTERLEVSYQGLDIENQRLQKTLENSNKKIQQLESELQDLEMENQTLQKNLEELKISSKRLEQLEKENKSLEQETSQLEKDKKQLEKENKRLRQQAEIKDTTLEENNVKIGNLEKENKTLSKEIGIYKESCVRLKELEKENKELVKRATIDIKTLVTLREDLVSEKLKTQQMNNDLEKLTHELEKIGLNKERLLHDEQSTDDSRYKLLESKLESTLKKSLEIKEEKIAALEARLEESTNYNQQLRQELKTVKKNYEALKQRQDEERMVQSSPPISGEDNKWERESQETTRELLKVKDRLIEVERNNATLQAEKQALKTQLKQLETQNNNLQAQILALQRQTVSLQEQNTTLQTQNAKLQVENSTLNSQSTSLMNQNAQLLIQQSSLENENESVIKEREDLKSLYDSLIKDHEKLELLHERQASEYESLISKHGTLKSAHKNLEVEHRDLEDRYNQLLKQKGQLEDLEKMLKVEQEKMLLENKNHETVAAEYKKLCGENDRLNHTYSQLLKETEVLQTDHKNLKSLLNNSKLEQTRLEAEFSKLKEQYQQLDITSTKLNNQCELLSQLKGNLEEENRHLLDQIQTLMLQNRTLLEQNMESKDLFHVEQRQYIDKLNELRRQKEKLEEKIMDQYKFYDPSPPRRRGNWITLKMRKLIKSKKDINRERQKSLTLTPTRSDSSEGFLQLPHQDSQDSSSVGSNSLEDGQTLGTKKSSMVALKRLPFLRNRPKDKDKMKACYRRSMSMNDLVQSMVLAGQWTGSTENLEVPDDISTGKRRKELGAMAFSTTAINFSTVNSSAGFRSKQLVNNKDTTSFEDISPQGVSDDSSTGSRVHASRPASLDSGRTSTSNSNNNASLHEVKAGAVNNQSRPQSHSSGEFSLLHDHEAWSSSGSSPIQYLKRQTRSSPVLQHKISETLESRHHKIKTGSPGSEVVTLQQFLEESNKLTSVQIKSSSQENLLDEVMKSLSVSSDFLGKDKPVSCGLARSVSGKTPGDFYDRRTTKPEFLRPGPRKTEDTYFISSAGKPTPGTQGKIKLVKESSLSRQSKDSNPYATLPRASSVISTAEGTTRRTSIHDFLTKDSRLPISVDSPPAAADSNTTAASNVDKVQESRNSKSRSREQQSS
UniProt Q08722, whole entry, looked up: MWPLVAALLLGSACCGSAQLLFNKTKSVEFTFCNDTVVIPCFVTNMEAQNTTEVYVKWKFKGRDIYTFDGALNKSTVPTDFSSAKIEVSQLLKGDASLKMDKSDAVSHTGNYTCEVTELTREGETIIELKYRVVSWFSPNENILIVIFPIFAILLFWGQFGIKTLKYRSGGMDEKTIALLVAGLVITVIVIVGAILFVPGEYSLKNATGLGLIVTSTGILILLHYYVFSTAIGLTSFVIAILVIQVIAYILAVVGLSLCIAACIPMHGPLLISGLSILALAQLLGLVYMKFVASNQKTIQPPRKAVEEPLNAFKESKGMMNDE
UniProt P49589: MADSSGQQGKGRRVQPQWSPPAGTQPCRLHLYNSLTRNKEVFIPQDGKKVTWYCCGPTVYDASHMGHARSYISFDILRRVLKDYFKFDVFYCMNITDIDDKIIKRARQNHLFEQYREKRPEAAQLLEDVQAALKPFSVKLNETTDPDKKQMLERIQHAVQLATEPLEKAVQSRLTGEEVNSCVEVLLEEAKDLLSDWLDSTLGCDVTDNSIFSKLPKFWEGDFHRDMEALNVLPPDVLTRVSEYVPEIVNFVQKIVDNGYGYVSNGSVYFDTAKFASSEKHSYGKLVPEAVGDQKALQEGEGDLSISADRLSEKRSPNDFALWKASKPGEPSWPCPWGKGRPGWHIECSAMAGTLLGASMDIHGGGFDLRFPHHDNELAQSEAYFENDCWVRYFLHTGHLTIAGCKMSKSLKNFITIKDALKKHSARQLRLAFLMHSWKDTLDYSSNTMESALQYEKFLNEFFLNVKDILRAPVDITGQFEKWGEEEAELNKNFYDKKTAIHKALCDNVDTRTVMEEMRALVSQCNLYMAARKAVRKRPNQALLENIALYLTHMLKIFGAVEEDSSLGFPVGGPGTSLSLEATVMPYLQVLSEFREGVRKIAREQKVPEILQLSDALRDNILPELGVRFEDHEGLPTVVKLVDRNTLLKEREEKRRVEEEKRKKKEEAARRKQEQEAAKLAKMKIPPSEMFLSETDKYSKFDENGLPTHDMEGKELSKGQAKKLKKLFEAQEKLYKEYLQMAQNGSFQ
UniProt O60508: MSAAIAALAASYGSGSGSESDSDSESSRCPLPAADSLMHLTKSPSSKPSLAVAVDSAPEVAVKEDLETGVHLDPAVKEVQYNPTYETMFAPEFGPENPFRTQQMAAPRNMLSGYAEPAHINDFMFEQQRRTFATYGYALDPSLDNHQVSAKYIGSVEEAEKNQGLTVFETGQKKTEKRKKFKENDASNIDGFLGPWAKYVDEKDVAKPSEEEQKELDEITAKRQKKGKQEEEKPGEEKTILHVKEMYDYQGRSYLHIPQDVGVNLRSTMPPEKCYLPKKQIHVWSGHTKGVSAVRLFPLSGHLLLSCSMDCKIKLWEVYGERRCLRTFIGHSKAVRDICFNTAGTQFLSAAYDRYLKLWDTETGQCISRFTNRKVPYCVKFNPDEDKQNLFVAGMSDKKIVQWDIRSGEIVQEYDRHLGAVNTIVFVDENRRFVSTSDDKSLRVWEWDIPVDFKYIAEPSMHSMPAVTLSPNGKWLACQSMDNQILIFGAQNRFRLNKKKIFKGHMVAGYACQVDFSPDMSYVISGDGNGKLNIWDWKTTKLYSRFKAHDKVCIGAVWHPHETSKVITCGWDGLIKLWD
UniProt Q96A33: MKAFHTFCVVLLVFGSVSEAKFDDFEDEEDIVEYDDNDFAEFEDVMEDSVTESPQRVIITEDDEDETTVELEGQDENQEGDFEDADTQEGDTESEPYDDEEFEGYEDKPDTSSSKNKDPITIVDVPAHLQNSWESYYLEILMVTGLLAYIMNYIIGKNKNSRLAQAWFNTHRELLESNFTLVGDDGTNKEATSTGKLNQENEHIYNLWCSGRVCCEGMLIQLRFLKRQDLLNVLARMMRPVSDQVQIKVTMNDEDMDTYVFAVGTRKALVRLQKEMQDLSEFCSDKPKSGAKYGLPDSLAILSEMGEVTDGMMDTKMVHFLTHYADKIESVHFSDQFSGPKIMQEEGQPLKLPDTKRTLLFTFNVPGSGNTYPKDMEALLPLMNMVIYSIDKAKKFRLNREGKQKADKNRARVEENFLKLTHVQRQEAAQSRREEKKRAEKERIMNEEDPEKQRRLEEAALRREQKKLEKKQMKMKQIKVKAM

What was measured:
Test in all cases: log2 fold change, soluble protein after heating vs DMSO (PISA); higher = thermal stabilisation; K562 cells, 10 uM, 30 min; active = over 0.2 and 3.5 SD of the protein, either way, in both replicates (recomputed)
[1] = compound: CS(=O)(=O)c1ccc(-c2cnc(N)c(C(=O)Nc3ccccc3)n2)cc1
Outline: (§1)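 K562 cells at 2×10^6 cells/mL were treated with 10 μM compound for 30 min. Aliquots were heated for 3 min across 48°C-58°C, pooled, and extracted in PBS with 0.5% NP-40 at 4°C; soluble protein was the supernatant after 21,000xg for 90 min. Soluble protein was quantified by TMTpro 16plex LC-MS/MS with channel sums equalised, and reported as log2 fold change in thermal stability against DMSO controls, with values from duplicates.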

crizotinib = compound: C[C@@H](Oc1cc(-c2cnn(C3CCNCC3)c2)cnc1N)c1c(Cl)ccc(F)c1Cl [crizotinib]
Outline: as §1

[2] = compound: C[C@@H]1COCCN1C2=NC(=NC(=C2)C3(CC3)S(=O)(=O)C)C4=C5C=CNC5=CC=C4
Outline: as §1

[3] = compound: C[C@H](C1=CC=C(C=C1)C(=O)NC2=C3C=CNC3=NC=C2)N
Outline: as §1

duvelisib = compound: C[C@H](Nc1ncnc2nc[nH]c12)c1cc2cccc(Cl)c2c(=O)n1-c1ccccc1 [duvelisib]
Outline: as §1

gandotinib = compound: Cc1cc(Nc2cc(CN3CCOCC3)c3nc(C)c(Cc4ccc(Cl)cc4F)n3n2)n[nH]1 [gandotinib]
Outline: as §1

tozasertib = compound: Cc1cc(Nc2cc(N3CCN(C)CC3)nc(Sc3ccc(NC(=O)C4CC4)cc3)n2)n[nH]1 [tozasertib]
Outline: as §1

[4] = compound: Cc1cc(SCc2sc(-c3ccc(C(F)(F)F)cc3)nc2C)ccc1OCC(=O)O
Outline: as §1

doramapimod = compound: Cc1ccc(-n2nc(C(C)(C)C)cc2NC(=O)Nc2ccc(OCCN3CCOCC3)c3ccccc23)cc1 [doramapimod]
Outline: as §1

ispinesib = compound: Cc1ccc(C(=O)N(CCCN)[C@@H](c2nc3cc(Cl)ccc3c(=O)n2Cc2ccccc2)C(C)C)cc1 [ispinesib]
Outline: as §1

Measured: log2 fold change

CCNA2 (UniProt P20248)
inactive: [1] -0.011 | crizotinib -0.033 | [2] -0.058 | [3] -0.065 | duvelisib 0 | gandotinib 0.002 | tozasertib -0.027 | [4] 0.01 | doramapimod 0.017 | ispinesib 0.043

CCT5 (UniProt P48643)
inactive: [1] -0.026 | crizotinib -0.007 | [2] 0.006 | [3] -0.023 | duvelisib -0.006 | gandotinib -0.068 | tozasertib 0.001 | [4] 0.004 | doramapimod 0.002 | ispinesib 0.01

CCDC22 (UniProt O60826)
inactive: [1] 0.009 | crizotinib -0.116 | [2] -0.038 | [3] 0.133 | duvelisib 0.013 | gandotinib -0.077 | tozasertib 0.052 | [4] 0.105 | doramapimod 0.023 | ispinesib -0.048

CBARP (UniProt Q8N350)
inactive: [1] 0.12 | crizotinib -0.069 | [2] 0.02 | [3] 0.045 | duvelisib -0.032 | gandotinib -0.061 | tozasertib -0.16 | [4] -0.13 | doramapimod 0.042 | ispinesib 0.058

CBWD1 (UniProt Q9BRT8)
inactive: [1] 0.079 | crizotinib -0.07 | [2] 0.044 | [3] 0.178 | duvelisib -0.002 | gandotinib 0.231 | tozasertib 0.107 | [4] 0.041 | doramapimod 0.013 | ispinesib -0.211

CDC34 (UniProt P49427)
inactive: [1] 0.007 | crizotinib -0.121 | [2] 0.117 | [3] 0.146 | duvelisib 0.067 | gandotinib -0.059 | tozasertib 0.153 | [4] 0.121 | doramapimod 0.169 | ispinesib -0.19

CCT4 (UniProt P50991)
inactive: [1] -0.038 | crizotinib 0.014 | [2] 0.031 | [3] -0.007 | duvelisib 0.002 | gandotinib -0.027 | tozasertib 0.004 | [4] 0.01 | doramapimod -0.015 | ispinesib 0.041

CBL (UniProt P22681)
inactive: [1] -0.015 | crizotinib 0.002 | [2] 0.053 | [3] -0.064 | duvelisib 0.138 | gandotinib -0.009 | tozasertib 0.024 | [4] -0.032 | doramapimod -0.055 | ispinesib 0.113

CCDC43 (UniProt Q96MW1)
inactive: [1] 0.035 | crizotinib 0.046 | [2] 0.037 | [3] -0.188 | duvelisib 0.016 | gandotinib -0.018 | tozasertib 0.017 | [4] -0.044 | doramapimod 0.011 | ispinesib -0.042

CAT (UniProt P04040)
inactive: [1] 0.009 | crizotinib 0.038 | [2] -0.015 | [3] -0.041 | duvelisib 0.015 | gandotinib -0.047 | tozasertib -0.006 | [4] -0.031 | doramapimod -0.016 | ispinesib 0.053

CD68 (UniProt P34810)
inactive: [1] -0.016

CCDC117 (UniProt Q8IWD4)
inactive: [1] 0.104 | crizotinib -0.071 | [2] 0.01 | [3] -0.03 | duvelisib -0.05 | gandotinib 0.032 | tozasertib 0.025 | [4] -0.001 | doramapimod -0.027 | ispinesib -0.03

CCDC137 (UniProt Q6PK04)
inactive: [1] 0.214 | crizotinib 0.03 | [2] -0.022 | [3] 0.544 | duvelisib -0.143 | gandotinib 0.225 | tozasertib 0.106 | [4] -0.098 | doramapimod 0.294 | ispinesib -0.004

CDC23 (UniProt Q9UJX2)
inactive: [1] 0.018 | crizotinib -0.019 | [2] -0.001 | [3] 0.08 | duvelisib 0.036 | gandotinib 0.006 | tozasertib 0.034 | [4] 0.022 | doramapimod 0.047 | ispinesib -0.059

CBFA2T3 (UniProt O75081)
inactive: [1] -0.117 | crizotinib 0.241 | [2] 0.147 | [3] 0.054 | duvelisib 0.035 | gandotinib -0.058 | tozasertib 0.037 | [4] 0.084 | doramapimod 0.22 | ispinesib -0.001

CCDC50 (UniProt Q8IVM0)
inactive: [1] -0.012 | crizotinib 0.02 | [2] 0.075 | [3] -0.002 | duvelisib 0.01 | gandotinib -0.068 | tozasertib -0.024 | [4] 0.006 | doramapimod -0.01 | ispinesib -0.099

CASP6 (UniProt P55212)
inactive: [1] -0.029 | crizotinib 0.07 | [2] 0.009 | [3] -0.064 | duvelisib 0.02 | gandotinib -0.006 | tozasertib -0.006 | [4] 0.013 | doramapimod -0.032 | ispinesib 0.045

CCNY (UniProt Q8ND76)
inactive: [1] 0.253 | crizotinib 0.09 | [2] 0.037 | [3] 0.017 | duvelisib -0.116 | gandotinib -0.137 | tozasertib -0.126 | [4] 0.053 | doramapimod 0.054 | ispinesib -0.132

CAST isoform 6 (UniProt P20810)
inactive: [1] 0.019 | crizotinib -0.004 | [2] 0.039 | [3] 0.024 | duvelisib 0.013 | gandotinib 0.043 | tozasertib -0.036 | [4] -0.081 | doramapimod -0.008 | ispinesib -0.025

Taken from the results shown (6 entries):
CD68 (UniProt P34810)
inactive: [1] -0.016

CCDC117 (UniProt Q8IWD4)
inactive: [1] 0.104 | crizotinib -0.071 | [2] 0.01 | [3] -0.03 | duvelisib -0.05 | gandotinib 0.032 | tozasertib 0.025 | [4] -0.001 | doramapimod -0.027 | ispinesib -0.03

CCDC137 (UniProt Q6PK04)
inactive: [1] 0.214 | crizotinib 0.03 | [2] -0.022 | [3] 0.544 | duvelisib -0.143 | gandotinib 0.225 | tozasertib 0.106 | [4] -0.098 | doramapimod 0.294 | ispinesib -0.004

CDC23 (UniProt Q9UJX2)
inactive: [1] 0.018 | crizotinib -0.019 | [2] -0.001 | [3] 0.08 | duvelisib 0.036 | gandotinib 0.006 | tozasertib 0.034 | [4] 0.022 | doramapimod 0.047 | ispinesib -0.059

CBFA2T3 (UniProt O75081)
inactive: [1] -0.117 | crizotinib 0.241 | [2] 0.147 | [3] 0.054 | duvelisib 0.035 | gandotinib -0.058 | tozasertib 0.037 | [4] 0.084 | doramapimod 0.22 | ispinesib -0.001

CCDC50 (UniProt Q8IVM0)
inactive: [1] -0.012 | crizotinib 0.02 | [2] 0.075 | [3] -0.002 | duvelisib 0.01 | gandotinib -0.068 | tozasertib -0.024 | [4] 0.006 | doramapimod -0.01 | ispinesib -0.099

Additional records

CARS2 (UniProt Q9HA77)
inactive: [1] 0.012 | crizotinib 0.014 | [2] 0.034 | [3] -0.036 | duvelisib 0.007 | gandotinib 0.054 | tozasertib 0.053 | [4] -0.004 | doramapimod -0.038 | ispinesib 0.032

CCDC90B (UniProt Q9GZT6)
inactive: [1] 0.013 | crizotinib 0.163 | [2] 0.205 | [3] -0.097 | duvelisib 0.133 | gandotinib 0.038 | tozasertib 0.005 | [4] -0.021 | doramapimod 0.047 | ispinesib 0.068

CARNMT1 (UniProt Q8N4J0)
inactive: [1] 0.042 | crizotinib -0.014 | [2] 0.146 | [3] -0.022 | duvelisib -0.007 | gandotinib -0.023 | tozasertib -0.036 | [4] 0.028 | doramapimod 0.034 | ispinesib 0.038

CCDC88A (UniProt Q3V6T2)
inactive: [1] 0.063 | crizotinib -0.106 | [2] 0.002 | [3] 0.063 | duvelisib 0.051 | gandotinib 0.021 | tozasertib 0.031 | [4] -0.001 | doramapimod 0.04 | ispinesib -0.282

CD47 (UniProt Q08722)
inactive: [1] 0.026 | crizotinib 0.116 | [2] 0.012 | [3] -0.119 | duvelisib -0.003 | gandotinib -0.016 | tozasertib -0.027 | [4] -0.028 | doramapimod -0.022 | ispinesib 0.009

CCDC124 (UniProt Q96CT7)
inactive: [1] -0.043 | crizotinib 0.006 | [2] -0.004 | [3] 0.052 | duvelisib -0.007 | gandotinib 0.031 | tozasertib -0.002 | [4] -0.013 | doramapimod 0.028 | ispinesib -0.089

CARS isoform 3 (UniProt P49589)
inactive: [1] 0.007 | crizotinib -0.021 | [2] 0.02 | [3] -0.021 | duvelisib -0.014 | gandotinib -0.104 | tozasertib -0.019 | [4] -0.021 | doramapimod -0.011 | ispinesib -0.029

CBR4 (UniProt Q8N4T8)
inactive: [1] 0.016 | crizotinib 0.049 | [2] 0.011 | [3] -0.052 | duvelisib 0.06 | gandotinib 0.117 | tozasertib -0.026 | [4] 0.014 | doramapimod 0.021 | ispinesib 0.003

CDC40 (UniProt O60508)
inactive: [1] -0.059 | crizotinib 0.139 | [2] -0.415 | [3] 0.345 | duvelisib -0.129 | gandotinib 0.503 | tozasertib 0.11 | [4] -0.027 | doramapimod 0.155

CD9 (UniProt P21926)
inactive: [1] 0.069 | crizotinib 0 | [2] 0.085 | [3] -0.233 | duvelisib 0.121 | gandotinib -0.053 | tozasertib -0.012 | [4] 0.029 | doramapimod -0.204

CC2D1B isoform 2 (UniProt Q5T0F9)
inactive: [1] 0.042 | crizotinib 0.008 | [2] -0.039 | [3] 0.012 | duvelisib 0.004 | gandotinib -0.049 | tozasertib 0.03 | [4] -0.026 | doramapimod -0.001 | ispinesib 0.004

CCDC47 (UniProt Q96A33)
inactive: [1] 0.03 | crizotinib -0.026 | [2] 0.067 | [3] 0.01 | duvelisib 0.024 | gandotinib -0.077 | tozasertib 0.008 | [4] 0.006 | doramapimod 0.036 | ispinesib -0.043
